Results deposited as PubChem BioAssay AID1224830 (NIAID, 2016).
Assay: 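Genes whose knock-down alters the TNF-alpha reporter response to LPS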 (primary screen). Cells: human THP-1 monocytic leukaemia cells, TNF dual-luciferase reporter clone, PMA-differentiated to macrophage-like cells. Knock-down reagent: siRNA pool against human genes, 50 nM. Timing: LPS for 4 h, given about 3 days after siRNA transfection. Challenge: bacterial LPS (TLR4 ligand), 10 ng/ml. Measured: 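TNF firefly reporter luminescence divided by renilla, normalised to the plate median, then turned into a robust z-score for each replicate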. Reading the numbers: TNF reporter robust z-score: higher = stronger TNF reporter response to LPS. Rule for the call: 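a well is active when its z-score exceeds 2.8 or falls below -1.5; control wells carry no call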.
Shown is one part, drawn at random, of about 18,000 reagents tested. About 2,900 of all reagents (16%) count as active. 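Calls are made per well; low scores hint the gene aids the LPS response, high scores that it dampens it.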 Entries without a mark were called inactive. Repeated entries: four replicate wells of each siRNA pool. Reagent sequences are not shown.

| Target gene | TNF reporter robust z-score |
| --- | --- |
| COA4 (GeneID 51287) | -0.99 |
| COA4 (GeneID 51287) | -0.12 |
| COA4 (GeneID 51287) | -0.22 |
| COA4 (GeneID 51287) | -0.48 |
| CDHR4 (GeneID 389118) | -1.67 (active) |
| CDHR4 (GeneID 389118) | -1.57 (active) |
| CDHR4 (GeneID 389118) | -1.79 (active) |
| CDHR4 (GeneID 389118) | -0.55 |
| GATD3 (GeneID 8209) | 0.59 |
| GATD3 (GeneID 8209) | 0.43 |
| GATD3 (GeneID 8209) | 0.22 |
| GATD3 (GeneID 8209) | 0.56 |
| GLB1L3 (GeneID 112937) | 0.47 |
| GLB1L3 (GeneID 112937) | -0.07 |
| GLB1L3 (GeneID 112937) | 0.09 |
| GLB1L3 (GeneID 112937) | 0.25 |
| SSX2IP (GeneID 117178) | 0 |
| SSX2IP (GeneID 117178) | -0.27 |
| SSX2IP (GeneID 117178) | 0.31 |
| SSX2IP (GeneID 117178) | 0.11 |
| MVB12A (GeneID 93343) | -1.43 |
| MVB12A (GeneID 93343) | -1.25 |
| MVB12A (GeneID 93343) | -1.51 (active) |
| MVB12A (GeneID 93343) | -1.04 |
| F9 (GeneID 2158) | 0.37 |
| F9 (GeneID 2158) | 1.16 |
| F9 (GeneID 2158) | 0.72 |
| F9 (GeneID 2158) | 1.78 |
| PPP1R26 (GeneID 9858) | 0.59 |
| PPP1R26 (GeneID 9858) | 0.17 |
| PPP1R26 (GeneID 9858) | 0.25 |
| PPP1R26 (GeneID 9858) | 1.37 |
| OPRK1 (GeneID 4986) | 0.89 |
| OPRK1 (GeneID 4986) | -0.87 |
| OPRK1 (GeneID 4986) | 0.79 |
| OPRK1 (GeneID 4986) | 0.56 |
| DYNLT3 (GeneID 6990) | -0.98 |
| DYNLT3 (GeneID 6990) | -0.69 |
| DYNLT3 (GeneID 6990) | -0.67 |
| DYNLT3 (GeneID 6990) | -1.02 |
| DNAJA1 (GeneID 3301) | -1.53 (active) |
| DNAJA1 (GeneID 3301) | -1.42 |
| DNAJA1 (GeneID 3301) | -1.09 |
| DNAJA1 (GeneID 3301) | -1.08 |
| ACKR5 (GeneID 11318) | 0.62 |
| ACKR5 (GeneID 11318) | 2.79 |
| ACKR5 (GeneID 11318) | 2.34 |
| ACKR5 (GeneID 11318) | 0.34 |

6 consecutive records from above, quoted:
| Target gene | TNF reporter robust z-score |
| --- | --- |
| GLB1L3 (GeneID 112937) | -0.07 |
| GLB1L3 (GeneID 112937) | 0.09 |
| GLB1L3 (GeneID 112937) | 0.25 |
| SSX2IP (GeneID 117178) | 0 |
| SSX2IP (GeneID 117178) | -0.27 |
| SSX2IP (GeneID 117178) | 0.31 |
